# PMC7819943, “Rice protein-binding microarrays: a tool to detect cis-acting elements near promoter regions in rice”
# Sequences of proteins named here, by UniProt entry; tags and fusion partners are left off.
# UniProt Q0JBA9, entry or part of it: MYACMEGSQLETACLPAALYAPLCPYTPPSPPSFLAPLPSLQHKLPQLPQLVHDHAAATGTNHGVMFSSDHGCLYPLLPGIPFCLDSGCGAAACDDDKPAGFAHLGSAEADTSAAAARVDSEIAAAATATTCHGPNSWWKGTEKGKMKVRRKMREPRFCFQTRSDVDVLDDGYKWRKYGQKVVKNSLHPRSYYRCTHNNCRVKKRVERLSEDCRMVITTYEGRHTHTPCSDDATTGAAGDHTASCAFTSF
# The other results are listed elsewhere or left out.
# Target: OsWRKY34 (Oryza sativa, UniProt Q0JBA9 1-250)
# Assay: protein-binding microarray (RPBM); PBS, 2% BSA, 51.3 ng/ul salmon testes DNA, 50 uM zinc acetate, 200 nM TF, 25 C, 1 h; high values mean tight binding
# Details: protein: recombinant; tags: N-terminal polyhistidine and DsRed monomer fusion (pET32a); label: CyDye5-dUTP incorporated in the synthesized complementary strand; 3' TTTTT single-stranded linker to array surface; dsDNA, one strand shown
# Outline: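 The binding signal is fluorescence intensity per feature, in arbitrary units, read on an Axon 4000B scanner. Polyhistidine- and DsRed-tagged transcription factors (N-terminal fusions) from E. coli BL21-CodonPlus were purified on Ni–NTA and applied at 200 nM for 1 h at 25 °C to a double-stranded, BSA-blocked custom Agilent array in buffer with 50 µM zinc acetate.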
row,Sequence,binding signal
1,CACTCGCCACCGCCGCCCACCCGCAACTGCCGCCGACTCCCGGAGTCACCTAGTGCAG,10800 fluorescence intensity (a.u.)
2,CTTCAACCATTCTCCTCCTACTGCTTCCTCTTTCTTCTTCCGGAGTCACCTAGTGCAG,9710 fluorescence intensity (a.u.)
3,GGAGGGAGTCGCGGGTGCAGTGTTCTGGTTCGGATCTGAGCGGAGTCACCTAGTGCAG,8960 fluorescence intensity (a.u.)
4,ACCCTTTTCCTCGTATGGTAGTGACTCGTCTCGTTTGCTTCGGAGTCACCTAGTGCAG,8170 fluorescence intensity (a.u.)
5,AGACCCTTAGTGCCTGTTTGTTTCCTCTTCGCCTTTGCATCGGAGTCACCTAGTGCAG,9100 fluorescence intensity (a.u.)
6,CGAATATCCTTTACTTTAGTTTCACACATCCTCTATCATACGGAGTCACCTAGTGCAG,9840 fluorescence intensity (a.u.)
7,AGCACATCCTCGACTTCTTCAACACCTGGAGCCGCAAGGCCGGAGTCACCTAGTGCAG,9430 fluorescence intensity (a.u.)
8,GGGAAATTGGGTAATTAATTAATTATGTGAAAGGGGTGGGCGGAGTCACCTAGTGCAG,12800 fluorescence intensity (a.u.)
9,TATCCACTACTACTACACTCCGTATTCACTAGTATGGCCCCGGAGTCACCTAGTGCAG,9690 fluorescence intensity (a.u.)
10,ACCTCGCTCACTCGCTCGCTCGATCACCGCGACCTCACTCCGGAGTCACCTAGTGCAG,10800 fluorescence intensity (a.u.)
11,ATAGATATGGAAAAATATGAAAGAAAAAAATGATAGTATTCGGAGTCACCTAGTGCAG,16100 fluorescence intensity (a.u.)
12,CAGCACGAGCGGCGAAGTGCTTGGGTGGGCTTCGTCTCCCCGGAGTCACCTAGTGCAG,8200 fluorescence intensity (a.u.)
13,CCTCCAGCCCCGCGCGCATCCGCTCAGCTTGCTCGGCATCCGGAGTCACCTAGTGCAG,9480 fluorescence intensity (a.u.)
14,ATGTAGTCTCTGGTTCGATCTATTTAACACATGGGAGGGACGGAGTCACCTAGTGCAG,10600 fluorescence intensity (a.u.)
15,CAACACTGATGGGCTCATCTTTTCGCTTATACTATTTATACGGAGTCACCTAGTGCAG,8820 fluorescence intensity (a.u.)
16,CCTCTCCCACCATCGTCTCCGCCATCGTTGTCGCCGTCGCCGGAGTCACCTAGTGCAG,9220 fluorescence intensity (a.u.)
17,TATCTCCTATGTCTTCCAGGCTCTCTCTCTCGTTTACTCTCGGAGTCACCTAGTGCAG,9590 fluorescence intensity (a.u.)
18,GAATAGCCACGAGTCAGTCCGCGTACTTTACTATACTTTACGGAGTCACCTAGTGCAG,8270 fluorescence intensity (a.u.)
19,TGGTGGTGGAGGTTTAGGTGAGGGTTTTTGGTTAGGCGATCGGAGTCACCTAGTGCAG,11200 fluorescence intensity (a.u.)
20,ATAAAAACTAGTTTGGTGTGGTAGATGTTTTTTTTTACAACGGAGTCACCTAGTGCAG,9000 fluorescence intensity (a.u.)
21,CTCCCTCAGTACATTACTCCCTCCGTTATCGTTTGACTTTCGGAGTCACCTAGTGCAG,10800 fluorescence intensity (a.u.)
22,CGGAAACACCCGTCTTACTGGCGAACCGCCGGCAACGGCGCGGAGTCACCTAGTGCAG,8150 fluorescence intensity (a.u.)
23,CGTTAGTGGTTCGTCCTGTTAATTCTGTCCTGCTACTTTACGGAGTCACCTAGTGCAG,11700 fluorescence intensity (a.u.)

# Six entries from above, as tab-separated lines.
row	Sequence	binding signal
2	CTTCAACCATTCTCCTCCTACTGCTTCCTCTTTCTTCTTCCGGAGTCACCTAGTGCAG	9710 fluorescence intensity (a.u.)
4	ACCCTTTTCCTCGTATGGTAGTGACTCGTCTCGTTTGCTTCGGAGTCACCTAGTGCAG	8170 fluorescence intensity (a.u.)
5	AGACCCTTAGTGCCTGTTTGTTTCCTCTTCGCCTTTGCATCGGAGTCACCTAGTGCAG	9100 fluorescence intensity (a.u.)
10	ACCTCGCTCACTCGCTCGCTCGATCACCGCGACCTCACTCCGGAGTCACCTAGTGCAG	10800 fluorescence intensity (a.u.)
15	CAACACTGATGGGCTCATCTTTTCGCTTATACTATTTATACGGAGTCACCTAGTGCAG	8820 fluorescence intensity (a.u.)
22	CGGAAACACCCGTCTTACTGGCGAACCGCCGGCAACGGCGCGGAGTCACCTAGTGCAG	8150 fluorescence intensity (a.u.)
